Measured values as given in PubChem BioAssay AID504847 (National Center for Advancing Translational Sciences (NCATS), 2011).
Out of some 400,000 compounds screened, about 3,700 (0.93%) were called active. The shares of active, inactive and inconclusive entries below differ from those in the screen. Calls follow the shape of the dose curve; as a rule, active = well fitted inhibition curve with a large enough effect; inconclusive = small, poorly fitted or top-dose-only effect, or another doubt; inactive = no such curve, though single readings can be large or run the other way. Where the call is inconclusive, the potency comes from a doubtful curve fit.

Amino acid sequences for entries named in this document (tags omitted). A change or cut given only in a name is not applied to a line headed by its entry.
UniProt P11473: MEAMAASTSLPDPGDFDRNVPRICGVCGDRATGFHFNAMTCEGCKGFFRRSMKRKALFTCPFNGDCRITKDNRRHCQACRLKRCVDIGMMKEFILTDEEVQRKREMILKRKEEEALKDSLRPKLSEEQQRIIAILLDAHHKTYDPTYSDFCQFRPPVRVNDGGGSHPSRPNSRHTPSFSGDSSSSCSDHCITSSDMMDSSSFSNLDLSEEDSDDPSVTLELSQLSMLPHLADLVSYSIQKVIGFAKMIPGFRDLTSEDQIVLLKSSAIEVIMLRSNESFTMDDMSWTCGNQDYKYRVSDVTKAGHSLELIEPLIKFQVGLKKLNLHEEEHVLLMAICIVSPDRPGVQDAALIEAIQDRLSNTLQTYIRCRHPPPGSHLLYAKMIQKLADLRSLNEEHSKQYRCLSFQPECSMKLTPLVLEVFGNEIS

Target: Vitamin D3 receptor (Homo sapiens) (UniProt P11473)
Test: Inhibitors of the vitamin D receptor (VDR): qHTS
Settings: VDR-SRC2-3 peptide fluorescence polarization, 2 h; max response, negative = inhibition: hits give low values
Outline: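 Two reagent solutions held at 4 deg C in the dark were dispensed, compounds pinned at 23 nl, and the mixture incubated 2 h at room temperature. Read-out: fluorescence polarization of VDR–SRC2-3 peptide binding.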
% is scaled to controls: 0 for no effect and ±100 for the full control effect; potency is read from the fitted curve at half-maximal effect.

Row | SMILES | Potency | max response, negative = inhibition
1 | COc1ccc(-c2cc(-c3ccc(O)cc3)nc(N)c2C#N)cc1 | inconclusive: 89.1 µM [inhibitor, single point] | 
2 | C=C(C)C(=O)O[C@H]1C/C(C)=C\C(=O)/C=C(\C)[C@H](O)[C@@H]2OC(=O)C(=C)[C@@H]21 | inconclusive: 79.4 µM [inhibitor, partial curve] | 
3 | Cc1ccc(C(=O)NC2(O)C(=O)c3ccccc3C2=O)cc1C | active: 10 µM | 
4 | CCOc1cc(/C=C2\COc3ccccc3C2=O)ccc1OCC(=O)N(C)C | active: 50.1 µM | 
5 | c1ccc(C(c2ccccc2)N2CC3(CCNCC3)C2)cc1 | inconclusive: 79.4 µM [inhibitor, single point] | 
6 | O=C(Nc1cccc(F)c1)N1CCC2(CCNCC2)CC1 | inconclusive: 39.8 µM [inhibitor, full curve] | 
7 | CC(=O)N1CCc2cc(S(=O)(=O)C(C)CC(=O)Nc3ccc(OC(F)(F)F)cc3)ccc21 (stereo not drawn) | inconclusive: 89.1 µM [inhibitor, partial curve, poor fit] | 
8 | O=C(N/N=C/C=C\c1ccco1)c1cccnc1 | inconclusive: 44.7 µM [inhibitor, partial curve] | 
9 | Cc1ccc(/C=N/N(C)S(=O)(=O)c2ccc(C)cc2)cc1 |  | inactive: -1.6%
10 | O=C(NCCOc1ccccc1)C1CCCCC1 |  | inactive: -4.6%
11 | N#CC(Sc1ccccn1)c1ccc(Cl)cc1 (stereo not drawn) | inconclusive: 39.8 µM [inhibitor, single point] | 
12 | Cc1ccc(OCCC(=O)N(Cc2ccccc2)c2c(N)n(Cc3ccccc3)c(=O)[nH]c2=O)cc1 | inconclusive: 70.8 µM [inhibitor, single point] | 
13 | O=C(CCCOc1ccc(Cl)cc1Cl)N/N=C/c1ccc(Cl)cc1 | inconclusive: 56.2 µM [inhibitor, partial curve, poor fit] | 
14 | Cc1cccc(OCC(=O)NNC(=O)c2ccc([N+](=O)[O-])cc2)c1 |  | inactive: 2.07%
15 | CCC(=O)NC1=C(Cl)C(=O)C(NC(=O)CC)=C(Cl)C1=O | active: 14.1 µM | 
16 | CCCc1nc2c(s1)CCc1onc(-c3ccc(Br)cc3)c1-2 | inconclusive: 89.1 µM [inhibitor, partial curve, poor fit] | 
17 | O=C(Cn1cc(SCc2cccc(Cl)c2)c2ccccc21)N1CCOCC1 | inconclusive: 89.1 µM [inhibitor, single point] | 
18 | O=C(NC(=S)NCCc1ccc(Cl)cc1)c1ccco1 | inconclusive: 28.2 µM [inhibitor, single point] | 
19 | CCCCCC1CCC(c2ccc(/C(N)=N/O)cc2)CC1 (stereo not drawn) |  | inactive: -7.05%
20 | Cc1ccc2nc3c(cc(C(N)=S)c(=N)n3CCCOC(C)C)c(=O)n2c1 | inconclusive: 70.8 µM [inhibitor, single point] | 
21 | Cc1cccc2cc(/C=C/C(=O)c3ccco3)c(Cl)nc12 | inconclusive: 70.8 µM [inhibitor, single point] | 
22 | CC(C)(C)NC(=O)C(c1ccncc1)N(Cc1ccco1)C(=O)c1ccc(-c2ccccc2)[nH]1 (stereo not drawn) | active: 70.8 µM | 
23 | CCc1c(C)sc(NC(=O)C2CCCO2)c1C#N (stereo not drawn) | inconclusive: 79.4 µM [inhibitor, partial curve, poor fit] | 

Row | SMILES | Potency | max response, negative = inhibition
24 | O=c1cc(Cn2ccnc2)c2cc3c(cc2o1)CCC3 |  | inactive: -4.41%
26 | CC1CN(C/C(=N\O)C23CC4CC(CC(C4)C2)C3)CC(C)O1 (stereo not drawn) |  | inactive: 3.1%
27 | Cc1cc(O)c(C(c2ccccc2Cl)N2CCN(c3ccccc3)CC2)c(=O)n1Cc1ccco1 (stereo not drawn) |  | inactive: -10.1%
28 | COc1ccc(COC(=O)Nc2cn(C)nc2C(F)(F)F)cc1 |  | inactive: 14.3%
29 | Cc1cc(C(=O)N/N=C2/CC(C)CC(C)(C)C2)c(C)o1 (stereo not drawn) |  | inactive: -28.5%
30 | COc1cccc(C(=O)CSc2nnnn2C)c1 | inconclusive: 79.4 µM [inhibitor, partial curve] | 
31 | Cc1cccc(N2C(S)=C(C#N)C(=O)NC2c2cccs2)c1 (stereo not drawn) | active: 50.1 µM | 
32 | CCCc1cc(=O)[nH]c(SCC(=O)CSc2nc(CCC)cc(=O)[nH]2)n1 | inconclusive: 89.1 µM [inhibitor, single point] | 
33 | CC1=NN(c2cccc(C(=O)O)c2)C(=O)/C1=C\C=C\c1ccco1 | inconclusive: 70.8 µM [inhibitor, partial curve, poor fit] | 
34 | COc1ccc(-c2c3c(=O)n(C)c(=O)n(C)c3c3c(-c4ccc(C)cc4)nc4ccccc4n23)cc1 | inconclusive: 89.1 µM [inhibitor, partial curve, poor fit] | 
35 | CCOC(=O)/C(=C\c1c[nH]c2ccccc12)NC(C)=O | inconclusive: 56.2 µM [inhibitor, partial curve, poor fit] | 
36 | COc1ccc(C(=O)OCC(=O)Nc2ncc([N+](=O)[O-])s2)cc1OC | inconclusive: 100 µM [inhibitor, partial curve, poor fit] | 
37 | Cc1nnc(N2C(=O)C(O)=C(C(=O)c3ccco3)C2c2ccc(C(C)C)cc2)s1 (stereo not drawn) | inconclusive: 100 µM [inhibitor, partial curve, poor fit] | 
38 | Cc1ccc(S(=O)(=O)NCC(=O)OCC(=O)NCc2ccc(F)cc2)cc1 |  | inactive: 10.5%
39 | O=C(c1ccc(Cl)cc1)c1cc([N+](=O)[O-])ccc1N1CCOCC1 | inconclusive: 70.8 µM [inhibitor, partial curve] | 
40 | Cc1ccc(C(C2=C(O)CC(C)(C)CC2=O)C2C(=O)CC(C)(C)CC2=O)o1 (stereo not drawn) | active: 50.1 µM | 
41 | O=C(O)CC(NC(=O)CC(c1ccccc1)c1ccccc1)c1cccc([N+](=O)[O-])c1 (stereo not drawn) |  | inactive: -14.3%
42 | O=C(Nc1sc2c(c1C(=O)O)CCCCC2)c1ccccc1 | inconclusive: 89.1 µM [inhibitor, single point] | 
43 | CCOC(=O)c1c(-c2ccc(C)s2)csc1N | active: 79.4 µM | 
44 | O=C(/C=C/c1ccco1)Oc1ccc(C(=S)N2CCOCC2)cc1 | inconclusive: 89.1 µM [inhibitor, single point] | 
45 | Cc1noc(C)c1-c1cc(NCCN2CCOCC2)ncn1 | inconclusive: 31.6 µM [inhibitor, partial curve, poor fit] | 
46 | S=c1[nH]nc(-c2ccccn2)n1/N=C/c1cccs1 |  | inactive: 1.7%

Molecules from the list above with two or more sulfur atoms, in the order listed:
Row | SMILES | Potency | max response, negative = inhibition
31 | Cc1cccc(N2C(S)=C(C#N)C(=O)NC2c2cccs2)c1 (stereo not drawn) | active: 50.1 µM | 
32 | CCCc1cc(=O)[nH]c(SCC(=O)CSc2nc(CCC)cc(=O)[nH]2)n1 | inconclusive: 89.1 µM [inhibitor, single point] | 
43 | CCOC(=O)c1c(-c2ccc(C)s2)csc1N | active: 79.4 µM | 
46 | S=c1[nH]nc(-c2ccccn2)n1/N=C/c1cccs1 |  | inactive: 1.7%

(further entries)

Row | SMILES | Potency | max response, negative = inhibition
47 | COc1ccc2oc3ccccc3c(=O)c2c1 |  | inactive: -8.31%
48 | COc1cc(/C=C2\C(=O)N(c3ccccc3)N=C2C)ccc1Oc1ccc([N+](=O)[O-])cc1[N+](=O)[O-] | inconclusive: 44.7 µM [inhibitor, partial curve, poor fit] | 
49 | CCc1ccc2[nH]c(=O)c(CN(CC3CCCO3)C(=S)NCc3ccco3)cc2c1 (stereo not drawn) | inconclusive: 89.1 µM [inhibitor, single point] | 
50 | CCC1CCc2c(sc(NC(=O)C3CC=CCC3C(=O)O)c2C#N)C1 (stereo not drawn) | inconclusive: 100 µM [inhibitor, partial curve, poor fit] | 
51 | Brc1ccc2ncnc(Nc3cccc4ccccc34)c2c1 |  | inactive: -5%
52 | CC(C)CCn1c(O)c(N=NC(=O)Cn2ccc(C(F)(F)F)n2)c2ccccc21 | active: 79.4 µM | 
53 | CC(C)n1nnnc1SCC(=O)Nc1ccccc1N1CCOCC1 |  | inactive: -0.176%
54 | COc1ccc(CCNC(=O)CSc2ccc3ccccc3c2)cc1OC | inconclusive: 89.1 µM [inhibitor, single point] | 
55 | O=C(CNC(=O)c1nc[nH]c1C(=O)N1CCc2ccccc2C1)OCc1ccccc1 | active: 79.4 µM | 
56 | COc1ccc2[nH]c3c(c2c1)CCN1C(=O)C(CC(=O)NCCC2=CCCCC2)C[C@H](C(=O)N2CCOCC2)[C@@]31C (stereo partly drawn) | inconclusive: 50.1 µM [inhibitor, partial curve, poor fit] | 
57 | CCOC(=O)c1c(C)[nH]c(C)c1S(=O)(=O)N1CCC(C(=O)N2CCN(c3cccc(C)c3C)CC2)CC1 |  | inactive: 12%
58 | C=Cc1ccc(C2=CC(=O)C[C@H](c3ccc(OC)cc3)C2)cc1 | inconclusive: 79.4 µM [inhibitor, partial curve] | 
59 | Cc1cccc(COc2ccccc2C(=O)NC2CCC(O)CC2)c1 (stereo not drawn) |  | inactive: 7.38%
60 | Cc1ccc(-c2nc(NC(=O)CSc3ncn[nH]3)ns2)cc1 | active: 14.1 µM | 
61 | CC1(OC(=O)C2CCCC2)C(=O)C=C2C=C(c3ccc(C#N)cc3)OC=C2C1=O (stereo not drawn) | inconclusive: 89.1 µM [inhibitor, single point] | 
62 | Cc1ccc2c(=O)cc(C(=O)N(Cc3ccccc3Cl)C3CCS(=O)(=O)C3)oc2c1 (stereo not drawn) | inconclusive: 3.55 µM [inhibitor, single point] | 
63 | O=C(CN1CCOCC1)Nc1ccccc1F | inconclusive: 89.1 µM [inhibitor, partial curve, poor fit] | 
64 | COc1ccc(Nc2nc(-c3ccncc3)nc3ccccc23)cc1 |  | inactive: -2.69%
65 | COc1ccc(SCC(=O)c2cc(C)c(OC(=S)N(C)C)c(C)c2)cc1 |  | inactive: 6.69%
66 | Cn1c(CN2CCOCC2)nc2cc(NC(=O)COc3ccccc3)ccc21 | inconclusive: 39.8 µM [inhibitor, partial curve, poor fit] | 
67 | c1ccc(Cn2c(CN3CCCC3)nc3ccccc32)cc1 | inconclusive: 11.2 µM [inhibitor, partial curve, poor fit] | 
68 | CN1CC[C@@]2(CCCN(C(=O)c3cc(C(F)(F)F)cc(C(F)(F)F)c3)C2)C1 | inconclusive: 50.1 µM [inhibitor, partial curve, poor fit] | 
